Assay results: the supplement of paper PMC11150407
Screen size: about 2,100 compounds; about 180 (8.6%) showed an effect of 50% or more. Some of the results follow.

system: MOLM1 and UCSD/AML1 (averaged); test: cell viability relative to DMSO control (POC); higher = less growth inhibition; conditions: 1 µM; 72 h
Method: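 Primary viability screen in the 3q26 EVI1-high AML cell lines MOLM1 and UCSD/AML1 (1.5e3 cells/well, 384-well), compounds at 1 uM for 72 h. ATP CellTiter-Glo read-out given as percent of viable cells over DMSO control (POC), averaged over duplicates. DMSO was the negative control and 5 uM etoposide the positive control. This mapping covers the MicroSource Spectrum and Selleck anticancer libraries (drug names).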

Compared with `c1ccc2c(c1)sc1ccccc12`, `O=C1c2ccccc2C(=O)c2ccccc21` is lower in cell viability: 104% for the first, 92.8% for the second.

First: CN1C(=O)CCS(=O)(=O)C1c1ccc(Cl)cc1 (configuration not stated)
Second: Oc1ccc(Cl)cc1
The cell viability of the first is higher: 106% for the first, 91.7% for the second.

Compared with `C=CCC1(C(C)CCC)C(=O)NC(=S)NC1=O` (configuration not stated), `CCC1(CC)C(=O)C=CNC1=O` is higher in cell viability: 89.9% for the first, 98.1% for the second.

First: CCCCCCCCCCCCCCCC[n+]1ccccc1
Second: NCCc1c[nH]c2ccccc12
The cell viability of the first is lower: 62.3% for the first, 89.9% for the second.

Compared with `c1ccc(/N=N/c2ccccc2)cc1`, `NC(=O)C[S+]([O-])C(c1ccccc1)c1ccccc1` (configuration not stated) is higher in cell viability: 96.4% for the first, 97.7% for the second.

Compared with `O=C1CCCN1CC#CCN1CCCC1`, `NC(=O)CN1CCCC1=O` is lower in cell viability: 107% for the first, 100% for the second.

Going from `CC1=C2[C@H]3OC(=O)[C@@H](C)[C@@H]3CC[C@@]2(C)C=CC1=O` to `C[C@]12C=CC(=O)C=C1CC[C@@H]1[C@@H]2CC[C@]2(C)C(=O)CC[C@@H]12`, the cell viability falls from 109% to 101%.

First: CCC(N)C(O)c1ccc(O)c(O)c1 (configuration not stated)
Second: C[C@H](N)[C@H](O)c1ccc(O)c(O)c1
The cell viability of the first is lower: 93.3% for the first, 105% for the second.

First: C[C@](O)(COc1ccc(C#N)cc1)C(=O)Nc1ccc(C#N)c(C(F)(F)F)c1 [Ostarine (MK-2866)]
Second: CC(=O)Nc1ccc(OC[C@](C)(O)C(=O)Nc2ccc([N+](=O)[O-])c(C(F)(F)F)c2)cc1 [Andarine (GTX-007)]
The cell viability of the first is higher: 93.7% for the first, 90.5% for the second.

Compared with `CC(=O)O[C@H]1C[C@H](O[C@H]2[C@@H](O)C[C@H](O[C@H]3[C@@H](O)C[C@H](O[C@H]4CC[C@@]5(C)[C@H](CC[C@@H]6[C@@H]5C[C@@H](O)[C@]5(C)[C@@H](C7=CC(=O)OC7)CC[C@]65O)C4)O[C@@H]3C)O[C@@H]2C)O[C@H](C)[C@H]1O[C@@H]1O[C@H](CO)[C@@H](O)[C@H](O)[C@H]1O`, `C[C@@H]1O[C@@H](O[C@H]2C[C@@H](O)[C@]3(CO)[C@H]4[C@H](O)C[C@]5(C)[C@@H](C6=CC(=O)OC6)CC[C@]5(O)[C@@H]4CC[C@]3(O)C2)[C@H](O)[C@H](O)[C@H]1O` is lower in cell viability: 3.89% for the first, 1.94% for the second.

Going from `COc1ccc(CCN2CCC(Nc3nc4ccccc4n3Cc3ccc(F)cc3)CC2)cc1` to `COc1ccc(C[C@H]2NC[C@H](O)[C@H]2OC(C)=O)cc1`, the cell viability falls from 95.2% to 3.59%.

First: O=C1C=C2C(=CCOC2O)O1 (configuration not stated)
Second: O=[N+]([O-])O[C@@H]1CO[C@H]2[C@@H]1OC[C@@H]2O
The cell viability of the first is lower: 1.61% for the first, 98.1% for the second.

First: COc1cc2c(cc1OC)[C@@]13CCN4CC5=CCO[C@H]6CC(=O)N2[C@H]1[C@H]6[C@H]5C[C@H]43
Second: CC[C@H]1CN2CCc3cc(OC)c(OC)cc3[C@@H]2C[C@@H]1C[C@H]1NCCc2cc(OC)c(OC)cc21
The cell viability of the first is higher: 104% for the first, 90.6% for the second.

Going from `COC(=O)C1=CCCN(C)C1` to `CN1CCN(C(=O)OC2c3nccnc3C(=O)N2c2ccc(Cl)cn2)CC1` (configuration not stated), the cell viability rises from 98.5% to 98.9%.

Compared with `C=C(C)[C@H]1Cc2c(ccc3c2O[C@@H]2COc4cc(OC)c(OC)cc4[C@@H]2C3=O)O1`, `COc1cc([C@@H]2c3cc4c(cc3[C@H](O)[C@H]3COC(=O)[C@H]23)OCO4)cc(OC)c1OC` is lower in cell viability: 26.4% for the first, 6.17% for the second.

First: O=C(NC(=O)c1c(F)cccc1F)Nc1cc(Cl)c(OC(F)(F)C(F)C(F)(F)F)cc1Cl (configuration not stated)
Second: O=C(O)COc1cc(Cl)c(Cl)cc1Cl
The cell viability of the first is lower: 93.9% for the first, 98.7% for the second.

Compared with `COc1cc2c(cc1OC)[C@H](C)NCC2`, `COc1ccc(Cc2nccc3cc(OC)c(OC)cc23)cc1OC` is lower in cell viability: 94.2% for the first, 89% for the second.

Going from `COc1ccc2c3c([nH]c2c1)C(C)=NCC3` to `COc1ccc2c(c1)[nH]c1c(C)nccc12`, the cell viability falls from 94.2% to 65.3%.

Compared with `NCCc1ccc(O)cc1`, `N[C@@H](Cc1ccc(N(CCCl)CCCl)cc1)C(=O)O` is lower in cell viability: 103% for the first, 81.3% for the second.

Going from `CN(C)C(=O)Oc1cc(OC(=O)N(C)C)cc(C(O)CNC(C)(C)C)c1` (configuration not stated) to `CC(C)(C)NCC(O)c1ccccc1Cl` (configuration not stated), the cell viability falls from 110% to 109%.

First: CCn1cc(C(=O)O)c(=O)c2cc3c(cc21)OCO3
Second: COc1cc2c(cc1-c1cc3cc4ccoc4cc3oc1=O)OCO2
The cell viability of the first is higher: 118% for the first, 99.4% for the second.

First: C[C@]12CC[C@H](O)C[C@@H]1CC[C@@H]1[C@@H]2CC[C@]2(C)C(=O)CC[C@@H]12
Second: C[C@]12CC[C@H](O)C[C@H]1CC[C@@H]1[C@@H]2C[C@@H](O)[C@]2(C)[C@@H](C3=CC(=O)OC3)CC[C@]12O
The cell viability of the first is higher: 98.7% for the first, 18.7% for the second.

Going from `C[N+]1(C)[C@@H]2C[C@@H](OC(=O)[C@H](CO)c3ccccc3)C[C@H]1[C@@H]1O[C@@H]12` to `CN1[C@@H]2CC[C@H]1C[C@@H](OC(=O)[C@H](CO)c1ccccc1)C2`, the cell viability falls from 102% to 100%.

Going from `CO[C@H]1C[C@H](O[C@H]2CC[C@]3(C=O)[C@H]4CC[C@]5(C)[C@@H](C6=CC(=O)OC6)CC[C@]5(O)[C@@H]4CC[C@]3(O)C2)O[C@H](C)[C@H]1O` to `CC(=O)OC1CCC23C(=O)OC45CCC(C6=CC(=O)OC6)C4(C)CCC2C5CCC3(O)C1` (configuration not stated), the cell viability rises from 3.81% to 5.23%.

Going from `CCC1(c2ccc(N)cc2)CCC(=O)NC1=O` (configuration not stated) to `CC1=CC(=O)c2c(O)cccc2C1=O`, the cell viability falls from 102% to 74.6%.

Compared with `CCC1(c2ccc(N)cc2)CCC(=O)NC1=O` (configuration not stated) [Aminoglutethimide (Cytadren)], `O=C1CN=C(c2ccccc2Cl)c2cc([N+](=O)[O-])ccc2N1` is higher in cell viability: 64.7% for the first, 87% for the second.

First: O=[N+]([O-])c1cc([As](=O)(O)O)ccc1O
Second: Cc1cc(O)ccc1Cl
The cell viability of the first is higher: 104% for the first, 102% for the second.

First: CCN1C[C@]2(OC(=O)c3ccccc3NC(C)=O)CC[C@H](OC)[C@@]34[C@@H]2C[C@@H]([C@@H]13)[C@@]1(O)C[C@H](OC)[C@H]2C[C@@H]4[C@]1(O)[C@H]2OC
Second: CCN1C[C@]2(COC)[C@H](O)C[C@H](OC)[C@@]34[C@@H]5C[C@@]6(O)[C@H](OC(=O)c7ccccc7)[C@@H]5[C@@](OC(C)=O)([C@@H]([C@H](OC)[C@H]23)[C@@H]14)[C@@H](O)[C@@H]6OC
The cell viability of the first is lower: 96.8% for the first, 100% for the second.

First: CC(=O)CC1CCCCN1 (configuration not stated)
Second: O=C(O)CCC1NCC2CC1CN1CCCCC21 (configuration not stated)
The cell viability of the first is higher: 102% for the first, 93.6% for the second.

Compared with `CC[C@@]1(O)C[C@H](O[C@H]2C[C@H](N(C)C)[C@H](O)[C@H](C)O2)c2c(cc3c(c2O)C(=O)c2c(O)ccc(O)c2C3=O)[C@H]1C(=O)OC`, `CC[C@@]1(O)C[C@H](O[C@H]2C[C@H](N(C)C)[C@H](O)[C@H](C)O2)c2c(cc3c(c2O)C(=O)c2c(O)cccc2C3=O)[C@H]1C(=O)OC` is higher in cell viability: 0.762% for the first, 38.5% for the second.

Going from `O=P1(NCCCl)OCCCN1CCCl` (configuration not stated) [Ifosfamide] to `OC[C@@H]1CCCN2CCCC[C@H]12`, the cell viability falls from 105% to 83%.

First: O=P1(NCCCl)OCCCN1CCCl (configuration not stated)
Second: CC(=O)OCC1=C(C(=O)O)N2C(=O)[C@@H](NC(=O)CCC[C@@H](N)C(=O)O)[C@H]2SC1
The cell viability of the first is higher: 105% for the first, 103% for the second.

Compared with `C=C(C)[C@@H]1[C@H]2OC(=O)[C@@H]1[C@]1(O)C[C@H]3O[C@]34C(=O)O[C@H]2[C@]14C`, `C[C@H]1C(=O)O[C@@H]2CCN3CC=C(COC(=O)[C@](C)(O)[C@]1(C)O)[C@H]23` is lower in cell viability: 110% for the first, 103% for the second.

Going from `Cc1cccc(C)c1NC1=NCCCS1` to `COc1c2c(cc3c1OCO3)CC[N+](C)=C2`, the cell viability rises from 100% to 102%.

First: C[C@@H](CO)NC(=O)[C@@H]1C=C2c3cccc4[nH]cc(c34)C[C@H]2N(C)C1
Second: CO[C@]12C[C@@H](COC(=O)c3cncc(Br)c3)CN(C)[C@@H]1Cc1cn(C)c3cccc2c13
The cell viability of the first is higher: 102% for the first, 98.1% for the second.

Going from `CC1(C)N([O-])[N+](=O)C1(C)Br` (configuration not stated) to `C[C@@H]1CC[C@H]2[C@@H](C)C(=O)O[C@@H]3O[C@@]4(C)CC[C@@H]1[C@]32OO4`, the cell viability falls from 109% to 98.1%.

First: CC[C@H]1[C@@H]2C[C@H]3[C@@H]4N(C)c5ccccc5[C@]45C[C@@H]([C@@H]2[C@H]5O)N3[C@@H]1O
Second: CC[C@H]1CN2CC[C@H]1C[C@@H]2[C@@H](O)c1ccnc2ccc(OC)cc12
The cell viability of the first is lower: 109% for the first, 110% for the second.

First: CC(C)(C)C(=O)C(Oc1ccc(Cl)cc1)n1cncn1 (configuration not stated)
Second: CC(CC(C(N)=O)(c1ccccc1)c1ccccc1)N(C)C (configuration not stated)
The cell viability of the first is higher: 99.8% for the first, 94.3% for the second.

Going from `CNC(C)C(O)c1ccccc1` (configuration not stated) to `OC1CCCCC1N1CCC(c2ccccc2)CC1` (configuration not stated), the cell viability rises from 96.1% to 107%.

First: CN(C)C(=S)SSC(=S)N(C)C
Second: CC(C)C[C@H](CN)CC(=O)O
The cell viability of the first is lower: 1.29% for the first, 67.7% for the second.

First: O=C1NC(=O)C(=O)C(=O)N1
Second: C=CC[C@]1(O)CC[C@H]2[C@@H]3CCC4=CC(=O)CCC4=C3C=C[C@@]21C
The cell viability of the first is higher: 100% for the first, 86.6% for the second.

Going from `C[N+]12CCC(CC1)C(OC(=O)C(O)(c1ccccc1)c1ccccc1)C2` (configuration not stated) to `CC(C)=CCOc1c2occc2cc2ccc(=O)oc12`, the cell viability rises from 98.5% to 106%.

Compared with `O=C1CCC[C@@H]2[C@H]3C[C@@H](CN12)[C@@H]1CCCCN1C3.[O-][Cl+3]([O-])([O-])O`, `C1CCc2nnnn2CC1` is higher in cell viability: 95.6% for the first, 96% for the second.

Compared with `CC(C)=CCCC1(C)C=Cc2c(O)c3c(c(CC=C(C)C)c2O1)OC12C(CC4CC1C(C)(C)OC2(C/C=C(/C)C(=O)O)C4O)C3=O` (configuration not stated), `C/C(=C\c1csc(C)n1)[C@@H]1C[C@@H]2O[C@]2(C)CCC[C@H](C)[C@H](O)[C@@H](C)C(=O)C(C)(C)[C@@H](O)CC(=O)O1` [Epothilone B (EPO906)] is lower in cell viability: 94.1% for the first, 13.4% for the second.

Going from `CC(=O)O[C@H]1C[C@@H](OC(C)=O)C(C)(C)C2C[C@@H](OC(C)=O)[C@]3(C)C(CC[C@@]4(C)[C@H](c5ccoc5)C(=O)[C@H]5O[C@]543)[C@]21C` (some centres not stated) to `C[C@@H]1CC[C@@]2(OC1)O[C@H]1[C@@H](O)[C@H]3[C@@H]4CC[C@H]5C[C@@H](O[C@@H]6O[C@H](CO)[C@H](O[C@@H]7O[C@H](CO)[C@@H](O)[C@H](O[C@@H]8OC[C@@H](O)[C@H](O)[C@H]8O)[C@H]7O[C@@H]7O[C@H](CO)[C@H](O)[C@H](O[C@@H]8O[C@H](CO)[C@@H](O)[C@H](O)[C@H]8O)[C@H]7O)[C@H](O)[C@H]6O)[C@H](O)C[C@]5(C)[C@H]4CC[C@]3(C)[C@H]1[C@@H]2C`, the cell viability rises from 85.4% to 92.7%.

First: C=C(C)[C@H]1CN[C@H](C(=O)O)[C@H]1CC(=O)O
Second: COP(N)(=O)SC (configuration not stated)
The cell viability of the first is lower: 96.1% for the first, 111% for the second.
